Here are results for 1 molecule from PMC8038991, “R-catcher, a potent molecular tool to unveil the arginylome” (Cellular and Molecular Life Sciences: CMLS, 2021).

No constants are given. Whether binding was seen depends on the method and setting. Binding seen in cells or lysates may run through a third protein. These calls come from enrichment with a bait or labelling near it, and not all partners need be listed.

The test addresses R-catcher (Twin StrepII-His6-ZZ_(122-175)^N132D) (human) (UniProt Q13501). In words: affinity purification with mass spectrometry; large-scale R-catcher pull-down: 10 mg lysate of HeLa cells (MG132 plus thapsigargin), pre-cleared on D129A mutant R-catcher beads, on R-catcher-sepharose, 3 h, 4 °C, without or with 25 mM RA or AR dipeptide; elution with biotin; LC-MS/MS; only the target purified.

B1: Dermcidin, endogenous (hit of the R-catcher LC-MS/MS) (protein, UniProt P81605 20-110)
chain: YDPEAASAPGSGNPCHEASAAQKENAGEDPGLARQAPKPRKQRSSLLEKGLDGAKKAVGGLGKLGKDAVEDLESVGKGAVHDVKDVLDSVL
In the case of B1, the binding result is given as “binds”.
